Experimental data: US20100316648A1 (published 2010)
These are yes or no findings as the source states them, for the method shown. Some entries that bind do so weakly or less than the wild type.

Amino acid sequences for entries named in this document (tags omitted). Residues count along the entry.
UniProt P00747, residues 461-809: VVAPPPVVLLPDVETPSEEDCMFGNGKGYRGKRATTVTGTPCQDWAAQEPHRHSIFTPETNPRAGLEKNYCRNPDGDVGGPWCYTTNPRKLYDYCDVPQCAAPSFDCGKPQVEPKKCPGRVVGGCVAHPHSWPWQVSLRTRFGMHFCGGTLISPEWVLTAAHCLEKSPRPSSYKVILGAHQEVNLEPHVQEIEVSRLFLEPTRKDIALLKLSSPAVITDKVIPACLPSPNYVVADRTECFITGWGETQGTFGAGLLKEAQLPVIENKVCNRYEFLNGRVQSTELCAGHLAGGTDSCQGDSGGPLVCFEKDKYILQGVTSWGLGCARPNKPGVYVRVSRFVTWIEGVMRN

Biological target: T1, Plg-RKT carboxyl-terminal peptide … (SEQ ID NO: 33) (mouse)
T1 sequence (peptide, coupled to bovine serum albumin (BSA) and coated on microtiter wells): CEQSKLFSDK
Experiment: competition ELISA against biotinylated plasminogen on immobilized peptide

binding: binds
Substance: plasminogen fragment K5-PD (from UniProt P00747 461-809)
